From PMC12487887, “Global conformations of Pichia pastoris complex I are distinguished by the binding of a unique interdomain bridging subunit” (Science Advances, 2025)
No constants are given. Whether binding was seen depends on the method and setting. Binding calls can cover weak binding; strength is not graded here.

How the values were obtained:
Assay in all cases: cryo-EM structure; Pp-CI purified in LMNG and reconstituted into cMSP26 nanodiscs with DOPC:DOPE:CDL and Q10, 10 mM Mops pH 7.5, 50 mM KCl; Titan Krios 300 kV; particles classified into four states (state 1 closed with NUQM 2.80 A; state 3 open without NUQM 3.34 A); both purified
[1] = target: NDUFB8 supernumerary subunit of Pichia pastoris complex I (Pichia pastoris (endogenous in strain X-33))
[2] = target: ND2 core membrane subunit of Pichia pastoris complex I (Pichia pastoris (endogenous in strain X-33))
[3] = target: NDUFA11 supernumerary subunit of Pichia pastoris complex I (Pichia pastoris (endogenous in strain X-33))

Measured: binding

B1: NUQM, supernumerary interdomain bridge subunit of Pichia pastoris complex I (protein, UniProt C4QXX8 27-190)
chain: ALATIRNDLKLNFRFKADVLEKNVIRSILAETKNLEIDNKDKDLDEFKLYDLLSKMIKQRQDSAAIYLKEGSPDRFRQTGWNELREVDYITKYLEALPVASAEEIEAKVEPIVQSVLEEEGELKSPKEIFSRIPWKVVNQDWQASEGAVKNTVLRLYNLYKTDA
binds: all assays above
